Measured values taken from PubChem BioAssay AID256 (DTP/NCI, 2004).
The list does not hold the whole screen: it gathers tests that were run many times, whatever their T/C, doses with no T/C, and many T/C values between a quarter and a half above the control. Other doses and runs of a compound stand elsewhere. T/C: endpoint of the treated group in % of that of the vehicle group. Some doses have a count of surviving animals in place of a T/C: the source files T/C as zero there, which appears to mark a toxic dose or a test without result, not a measured value. Some doses without a T/C left all or most animals alive at the check, yet need not have been tolerated: the source hardly ever lists a survival T/C far under the control, and the zero likely stands for such cases as well. Counts of survivors are from the toxicity check (mostly the fifth day) where no day follows; animals may have died later. Schedule codes are those of the source, read here as Q, the interval in days (D) or hours (H), X, the number of doses. Where survival is the endpoint, this PubChem deposit counts one and a half times the control or more as active, and values a quarter to a half above the control carry no call in these data; other NCI protocols may use other cut-offs. Some T/C values carry the count of animals alive at the toxicity check (mostly the fifth day); where none is given, no animal had died by that day. Some entries hold several experiments; the values are given in rising order. Signs of the kind (2×) stand for listed records that agree.

Test system: CD2F1 mice, L1210 leukemia ip, survival T/C
Assay: NCI In Vivo Anticancer Drug Screen. Data for tumor model L1210 Leukemia (intraperitoneal) in CD2F1 (CDF1) mice
Conditions: higher T/C = longer survival
Outline: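 Compound-dosed mice with transplantable tumor versus matched vehicle controls; endpoint ratio T/C reported.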

[1] = T/C endpoint: mean survival time, dose: 400.0 mg/kg/injection, schedule: Q04DX003 (ip), vehicle: saline with Tween-80
[2] = T/C endpoint: mean survival time, dose: 400.0 mg/kg/injection, schedule: Q01DX009 (ip), vehicle: saline with Tween-80
[3] = T/C endpoint: mean survival time, dose: 50.0 mg/kg/injection, schedule: Q01DX009 (ip), vehicle: saline with Tween-80
[4] = T/C endpoint: mean survival time, dose: 100.0 mg/kg/injection, schedule: Q04DX003 (ip), vehicle: saline with Tween-80

OC(CBr)C(O)C(O)C(O)CBr (centres undefined)
T/C (T/C endpoint: mean survival time, dose: 200.0 mg/kg/injection, schedule: Q01DX009 (oral), vehicle: other): 130 % of control | T/C (T/C endpoint: mean survival time, dose: 200.0 mg/kg/injection, schedule: Q04DX003 (ip), vehicle: saline): 127 % of control | T/C (T/C endpoint: mean survival time, dose: 300.0 mg/kg/injection, schedule: Q04DX003 (ip), vehicle: Klucel (hydroxypropylcellulose) (HPC)): 140 % of control | T/C (T/C endpoint: mean survival time, dose: 300.0 mg/kg/injection, schedule: Q04DX003 (ip), vehicle: saline): 127 % of control | T/C (T/C endpoint: mean survival time, dose: 400.0 mg/kg/injection, schedule: Q04DX003 (ip), vehicle: Klucel (hydroxypropylcellulose) (HPC)): 132 % of control | survivor count (T/C endpoint: mean survival time, dose: 800.0 mg/kg/injection, schedule: Q01DX009 (oral), vehicle: other): 6 of 6 | survivor count (T/C endpoint: median survival time, dose: 64.0 mg/kg/injection, schedule: Q03HX008 (ip), vehicle: Klucel (hydroxypropylcellulose) (HPC)): 10 of 10 | survivor count (T/C endpoint: median survival time, dose: 64.0 mg/kg/injection, schedule: Q03HX016 (ip), vehicle: Klucel (hydroxypropylcellulose) (HPC)): 10 of 10 | survivor count (T/C endpoint: median survival time, dose: 64.0 mg/kg/injection, schedule: Q03HX024 (ip), vehicle: Klucel (hydroxypropylcellulose) (HPC)): 10 of 10 | T/C (T/C endpoint: median survival time, dose: 80.0 mg/kg/injection, schedule: Q01DX005 (ip), vehicle: Klucel (hydroxypropylcellulose) (HPC), evaluated on day 30): 135 % of control | T/C (T/C endpoint: median survival time, dose: 80.0 mg/kg/injection, schedule: Q01DX005 (ip), vehicle: Klucel (hydroxypropylcellulose) (HPC), evaluated on day 45): 132 and 134 % of control [9 of 10 alive] | survivor count (T/C endpoint: median survival time, dose: 128.0 mg/kg/injection, schedule: Q03HX008 (ip), vehicle: Klucel (hydroxypropylcellulose) (HPC)): 7 of 10 | survivor count (T/C endpoint: median survival time, dose: 128.0 mg/kg/injection, schedule: Q03HX016 (ip), vehicle: Klucel (hydroxypropylcellulose) (HPC)): 4 of 10 | survivor count (T/C endpoint: median survival time, dose: 128.0 mg/kg/injection, schedule: Q03HX024 (ip), vehicle: Klucel (hydroxypropylcellulose) (HPC)): 4 of 10 | T/C (T/C endpoint: median survival time, dose: 200.0 mg/kg/injection, schedule: Q04DX003 (ip), vehicle: Klucel (hydroxypropylcellulose) (HPC)): 125 and 141 % of control [9 of 10 alive] | survivor count (T/C endpoint: median survival time, dose: 256.0 mg/kg/injection, schedule: Q01DX009 (ip), vehicle: Klucel (hydroxypropylcellulose) (HPC)): 10 of 10 | survivor count (T/C endpoint: median survival time, dose: 256.0 mg/kg/injection, schedule: Q03HX008 (ip), vehicle: Klucel (hydroxypropylcellulose) (HPC)): 2 of 10 | survivor count (T/C endpoint: median survival time, dose: 256.0 mg/kg/injection, schedule: Q03HX016 (ip), vehicle: Klucel (hydroxypropylcellulose) (HPC)): 3 of 10 | survivor count (T/C endpoint: median survival time, dose: 512.0 mg/kg/injection, schedule: Q01DX009 (ip), vehicle: Klucel (hydroxypropylcellulose) (HPC)): 9 of 10 | survivor count (T/C endpoint: median survival time, dose: 1024.0 mg/kg/injection, schedule: Q01DX001 (ip), vehicle: Klucel (hydroxypropylcellulose) (HPC)): 7 of 10 | survivor count (T/C endpoint: median survival time, dose: 1024.0 mg/kg/injection, schedule: Q04DX003 (ip), vehicle: Klucel (hydroxypropylcellulose) (HPC)): 8 of 10 | survivor count (T/C endpoint: median survival time, dose: 1024.0 mg/kg/injection, schedule: Q08DX002 (ip), vehicle: Klucel (hydroxypropylcellulose) (HPC)): 8 of 10 | survivor count (T/C endpoint: median survival time, dose: 2048.0 mg/kg/injection, schedule: Q01DX001 (ip), vehicle: Klucel (hydroxypropylcellulose) (HPC)): 7 of 10 | survivor count (T/C endpoint: median survival time, dose: 2048.0 mg/kg/injection, schedule: Q08DX002 (ip), vehicle: Klucel (hydroxypropylcellulose) (HPC)): 6 of 10

COCCCNc1ccc([N+](=O)[O-])cn1
survivor count (T/C endpoint: mean survival time, dose: 400.0 mg/kg/injection, schedule: Q01DX001 (ip), vehicle: carboxymethylcellulose (CMC)): 2 of 4

O=C(CCl)OCc1ccc([N+](=O)[O-])o1
survivor count [1]: 3 of 6

Cc1ccc(NCC(O)C(O)C(O)CO)cc1C (centres undefined)
survivor count (T/C endpoint: mean survival time, dose: 400.0 mg/kg/injection, schedule: Q04DX002 (ip), vehicle: saline with Tween-80): 3 of 3

N#CC1(O)CCCCC1
survivor count (T/C endpoint: mean survival time, dose: 20.0 mg/kg/injection, schedule: Q04DX003 (ip), vehicle: saline with Tween-80): 0 of 6

O=C1CN=C(c2ccccn2)c2cc(Cl)ccc2N1
survivor count (T/C endpoint: mean survival time, dose: 600.0 mg/kg/injection, schedule: Q01DX009 (ip), vehicle: saline with Tween-80): 0 of 6

CS(=O)(=O)c1nc2ccccc2s1
survivor count [2]: 0 of 6

Clc1cc(Cl)c(CBr)cc1CBr
survivor count (T/C endpoint: mean survival time, dose: 25.0 mg/kg/injection, schedule: Q01DX009 (ip), vehicle: saline with Tween-80): 3 of 6 | survivor count [3]: 0 of 6 | survivor count [4]: 5 of 6 | survivor count [1]: 2 of 6

NC(=O)c1ccccc1N=NN(CCF)CCF
survivor count (T/C endpoint: mean survival time, dose: 18.0 mg/kg/injection, schedule: Q04DX003 (ip), vehicle: saline with Tween-80): 4 of 6

CN(C)CCNC(=O)c1ccc(N)cc1
survivor count (T/C endpoint: mean survival time, dose: 400.0 mg/kg/injection, schedule: Q04DX002 (ip), vehicle: saline): 3 of 3

C=C(Cl)CNC
survivor count (T/C endpoint: mean survival time, dose: 100.0 mg/kg/injection, schedule: Q01DX001 (ip), vehicle: acetone): 0 of 6 | survivor count (T/C endpoint: mean survival time, dose: 200.0 mg/kg/injection, schedule: Q01DX001 (ip), vehicle: acetone): 0 of 6 | survivor count (T/C endpoint: mean survival time, dose: 400.0 mg/kg/injection, schedule: Q01DX001 (ip), vehicle: acetone): 0 of 6

NC(Cc1cc(I)c(Oc2cc(I)c(O)c(I)c2)c(I)c1)C(=O)O (centres undefined)
survivor count (T/C endpoint: mean survival time, dose: 0.5 mg/kg/injection, schedule: Q01DX009 (ip), vehicle: saline): 6 of 6 | T/C (T/C endpoint: mean survival time, dose: 4.0 mg/kg/injection, schedule: Q01DX009 (ip), vehicle: saline, evaluated on day 5): 89 and 92 % of control | T/C (T/C endpoint: mean survival time, dose: 4.0 mg/kg/injection, schedule: Q01DX009 (ip), vehicle: saline, evaluated on day 30): 87 and 98 % of control | survivor count (T/C endpoint: mean survival time, dose: 16.0 mg/kg/injection, schedule: Q01DX009 (ip), vehicle: saline): 6 of 6 | survivor count (T/C endpoint: mean survival time, dose: 32.0 mg/kg/injection, schedule: Q01DX009 (ip), vehicle: saline): 6 of 6 | survivor count (T/C endpoint: mean survival time, dose: 64.0 mg/kg/injection, schedule: Q01DX009 (ip), vehicle: saline): 6 of 6 | survivor count (T/C endpoint: mean survival time, dose: 128.0 mg/kg/injection, schedule: Q01DX009 (ip), vehicle: saline): 6 of 6 | T/C (T/C endpoint: median survival time, dose: 0.63 mg/kg/injection, schedule: Q01DX009 (ip), vehicle: saline, evaluated on day 5): 80, 87 (2×), 88 % of control | T/C (T/C endpoint: median survival time, dose: 0.63 mg/kg/injection, schedule: Q01DX009 (ip), vehicle: saline, evaluated on day 6): 85, 92, 93 % of control | T/C (T/C endpoint: median survival time, dose: 2.5 mg/kg/injection, schedule: Q01DX009 (ip), vehicle: saline, evaluated on day 5): 79, 85, 86, 101 % of control | T/C (T/C endpoint: median survival time, dose: 2.5 mg/kg/injection, schedule: Q01DX009 (ip), vehicle: saline, evaluated on day 6): 85, 91, 94 % of control | T/C (T/C endpoint: median survival time, dose: 10.0 mg/kg/injection, schedule: Q01DX009 (ip), vehicle: saline, evaluated on day 5): 70 [4 of 5 alive], 84, 96, 105 % of control | T/C (T/C endpoint: median survival time, dose: 10.0 mg/kg/injection, schedule: Q01DX009 (ip), vehicle: saline, evaluated on day 6): 85, 89, 92 % of control | T/C (T/C endpoint: median survival time, dose: 40.0 mg/kg/injection, schedule: Q01DX009 (ip), vehicle: saline, evaluated on day 5): 76, 80, 86, 90 % of control | T/C (T/C endpoint: median survival time, dose: 40.0 mg/kg/injection, schedule: Q01DX009 (ip), vehicle: saline, evaluated on day 6): 86, 91, 92 % of control

CCNCc1cc(Nc2cc(C)nc(/N=C(\N)Nc3ccc(Cl)c(Cl)c3)n2)ccc1OC
survivor count (T/C endpoint: mean survival time, dose: 50.0 mg/kg/injection, schedule: Q01DX009 (ip), vehicle: Klucel (hydroxypropylcellulose) (HPC)): 2 of 6 | survivor count (T/C endpoint: mean survival time, dose: 100.0 mg/kg/injection, schedule: Q01DX009 (ip), vehicle: Klucel (hydroxypropylcellulose) (HPC)): 0 of 6

CCCCCCCCCCCCCCCc1cc(=O)n(-c2ccc(C(=O)OCC)cc2)n1C
survivor count [2]: 5 of 6

Cc1cc(C)c(C(C)(C)O)c(C)c1
survivor count [4]: 6 of 6

Nc1cc(Cl)nnc1Cl
survivor count (T/C endpoint: mean survival time, dose: 400.0 mg/kg/injection, schedule: Q04DX003 (ip), vehicle: saline): 1 of 6

COC1=C(OC)C(=O)C(SCc2ccc(OC)cc2)=CC1=O
survivor count [3]: 0 of 3 | survivor count (T/C endpoint: mean survival time, dose: 100.0 mg/kg/injection, schedule: Q01DX009 (ip), vehicle: saline with Tween-80): 0 of 3 | survivor count (T/C endpoint: mean survival time, dose: 200.0 mg/kg/injection, schedule: Q01DX009 (ip), vehicle: saline with Tween-80): 0 of 3

CS(C)=O
survivor count (T/C endpoint: mean survival time, dose: 3000.0 mg/kg/injection, schedule: Q01DX009 (ip), vehicle: saline): 6 of 6 | survivor count (T/C endpoint: mean survival time, dose: 3.0 grams/kg/injection, schedule: Q01DX009 (ip), vehicle: saline): 6 of 6
